From PMC6300602

The chains behind the UniProt entries cited, without tags or fusion partners. Where a name states a change or a piece, a line headed by the entry shows the natural chain unless it says otherwise.
UniProt Q12522: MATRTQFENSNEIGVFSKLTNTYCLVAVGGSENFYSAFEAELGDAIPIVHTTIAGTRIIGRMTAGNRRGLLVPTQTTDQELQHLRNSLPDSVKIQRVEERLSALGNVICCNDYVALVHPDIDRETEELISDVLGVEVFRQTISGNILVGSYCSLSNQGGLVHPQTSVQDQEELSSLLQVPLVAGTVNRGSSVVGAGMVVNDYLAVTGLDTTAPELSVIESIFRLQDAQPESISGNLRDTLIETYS
UniProt P05748: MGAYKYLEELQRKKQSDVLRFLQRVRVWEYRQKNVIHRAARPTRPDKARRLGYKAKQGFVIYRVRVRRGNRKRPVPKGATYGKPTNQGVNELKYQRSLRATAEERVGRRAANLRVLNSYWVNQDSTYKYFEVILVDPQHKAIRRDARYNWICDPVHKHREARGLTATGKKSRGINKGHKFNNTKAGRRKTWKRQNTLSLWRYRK

Legend:
[1] = target: TAP-tagged Tif6 (S. cerevisiae) (UniProt Q12522); assay: co-IP; Tif6-TAP retrieved with late pre-60S particles from yeast lysate on IgG sepharose, eluted with TEV protease, western blot; cells expressing (Gal) or depleted of (Glu) Spb4; particle amounts normalised to Tif6 and Rpl15
[2] = target: T1, Kre35-TAP (S. cerevisiae) (UniProt P53145); assay: co-IP; Kre35-TAP retrieved with cytoplasmic pre-60S particles from yeast lysate on IgG sepharose, eluted with TEV protease, western blot; cells expressing or depleted of Mak5 (doxycycline); particle amounts normalised to Rpl15
T1 sequence: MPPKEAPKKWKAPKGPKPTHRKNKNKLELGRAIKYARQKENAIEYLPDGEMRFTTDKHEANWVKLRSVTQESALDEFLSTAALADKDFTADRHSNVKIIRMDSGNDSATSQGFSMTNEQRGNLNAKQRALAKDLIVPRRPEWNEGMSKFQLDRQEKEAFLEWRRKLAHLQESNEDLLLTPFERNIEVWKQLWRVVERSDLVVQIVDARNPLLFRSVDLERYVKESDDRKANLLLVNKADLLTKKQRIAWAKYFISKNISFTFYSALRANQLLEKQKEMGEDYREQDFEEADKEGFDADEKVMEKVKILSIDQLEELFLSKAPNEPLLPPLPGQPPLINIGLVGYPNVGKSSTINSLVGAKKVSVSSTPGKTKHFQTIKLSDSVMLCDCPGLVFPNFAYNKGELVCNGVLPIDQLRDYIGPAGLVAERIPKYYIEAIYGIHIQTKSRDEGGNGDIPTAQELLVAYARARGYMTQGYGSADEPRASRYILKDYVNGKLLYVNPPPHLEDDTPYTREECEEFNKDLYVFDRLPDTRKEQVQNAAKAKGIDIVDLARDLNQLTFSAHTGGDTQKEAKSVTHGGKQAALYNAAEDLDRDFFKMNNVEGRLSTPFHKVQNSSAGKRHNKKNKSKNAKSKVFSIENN

binding [1]: binds | binding [2]: binds
Substance: Rpl15 (from UniProt P05748)

No constants are given. Whether binding was seen depends on the method and setting. Binding seen in cells or lysates may run through a third protein. Binding can be weak; no strength is given.
